The values that follow come from article PMC3636044.

Chains of the proteins cited; added tags and fusions are not shown.
UniProt Q16637: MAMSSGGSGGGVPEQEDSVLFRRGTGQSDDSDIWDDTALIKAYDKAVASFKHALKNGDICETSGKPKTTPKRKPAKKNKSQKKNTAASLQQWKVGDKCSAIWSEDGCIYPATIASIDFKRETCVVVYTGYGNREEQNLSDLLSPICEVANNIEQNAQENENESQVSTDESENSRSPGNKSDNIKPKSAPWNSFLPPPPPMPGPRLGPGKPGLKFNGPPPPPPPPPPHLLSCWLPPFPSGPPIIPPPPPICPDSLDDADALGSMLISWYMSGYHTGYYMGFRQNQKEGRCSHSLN
UniProt P17480: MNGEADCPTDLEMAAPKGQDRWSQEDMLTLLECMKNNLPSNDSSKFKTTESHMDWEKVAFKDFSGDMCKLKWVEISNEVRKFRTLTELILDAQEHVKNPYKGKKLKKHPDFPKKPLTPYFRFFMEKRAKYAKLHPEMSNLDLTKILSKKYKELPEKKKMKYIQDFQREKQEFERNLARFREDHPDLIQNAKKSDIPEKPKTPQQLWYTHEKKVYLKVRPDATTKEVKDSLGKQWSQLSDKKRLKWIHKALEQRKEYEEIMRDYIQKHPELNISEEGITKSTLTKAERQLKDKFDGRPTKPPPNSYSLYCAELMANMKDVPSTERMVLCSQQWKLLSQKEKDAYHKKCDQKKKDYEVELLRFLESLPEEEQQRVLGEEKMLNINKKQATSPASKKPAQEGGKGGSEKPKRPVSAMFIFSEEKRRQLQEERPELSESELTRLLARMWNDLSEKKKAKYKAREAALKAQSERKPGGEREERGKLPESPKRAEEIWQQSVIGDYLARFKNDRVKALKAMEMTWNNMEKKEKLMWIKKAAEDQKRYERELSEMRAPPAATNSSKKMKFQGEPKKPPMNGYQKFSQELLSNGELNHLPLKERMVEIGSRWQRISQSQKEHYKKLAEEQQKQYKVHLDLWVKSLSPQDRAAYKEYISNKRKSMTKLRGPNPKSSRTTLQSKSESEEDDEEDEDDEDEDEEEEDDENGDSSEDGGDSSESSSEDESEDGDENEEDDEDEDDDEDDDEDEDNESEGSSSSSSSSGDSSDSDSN
UniProt O14893: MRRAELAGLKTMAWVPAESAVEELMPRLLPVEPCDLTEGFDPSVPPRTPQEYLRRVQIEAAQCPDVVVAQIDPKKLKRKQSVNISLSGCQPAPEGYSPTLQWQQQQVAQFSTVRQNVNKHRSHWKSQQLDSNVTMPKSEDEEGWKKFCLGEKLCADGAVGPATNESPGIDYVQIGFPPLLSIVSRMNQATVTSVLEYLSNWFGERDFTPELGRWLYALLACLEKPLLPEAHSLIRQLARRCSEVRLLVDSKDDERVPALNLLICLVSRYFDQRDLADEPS
UniProt O60264: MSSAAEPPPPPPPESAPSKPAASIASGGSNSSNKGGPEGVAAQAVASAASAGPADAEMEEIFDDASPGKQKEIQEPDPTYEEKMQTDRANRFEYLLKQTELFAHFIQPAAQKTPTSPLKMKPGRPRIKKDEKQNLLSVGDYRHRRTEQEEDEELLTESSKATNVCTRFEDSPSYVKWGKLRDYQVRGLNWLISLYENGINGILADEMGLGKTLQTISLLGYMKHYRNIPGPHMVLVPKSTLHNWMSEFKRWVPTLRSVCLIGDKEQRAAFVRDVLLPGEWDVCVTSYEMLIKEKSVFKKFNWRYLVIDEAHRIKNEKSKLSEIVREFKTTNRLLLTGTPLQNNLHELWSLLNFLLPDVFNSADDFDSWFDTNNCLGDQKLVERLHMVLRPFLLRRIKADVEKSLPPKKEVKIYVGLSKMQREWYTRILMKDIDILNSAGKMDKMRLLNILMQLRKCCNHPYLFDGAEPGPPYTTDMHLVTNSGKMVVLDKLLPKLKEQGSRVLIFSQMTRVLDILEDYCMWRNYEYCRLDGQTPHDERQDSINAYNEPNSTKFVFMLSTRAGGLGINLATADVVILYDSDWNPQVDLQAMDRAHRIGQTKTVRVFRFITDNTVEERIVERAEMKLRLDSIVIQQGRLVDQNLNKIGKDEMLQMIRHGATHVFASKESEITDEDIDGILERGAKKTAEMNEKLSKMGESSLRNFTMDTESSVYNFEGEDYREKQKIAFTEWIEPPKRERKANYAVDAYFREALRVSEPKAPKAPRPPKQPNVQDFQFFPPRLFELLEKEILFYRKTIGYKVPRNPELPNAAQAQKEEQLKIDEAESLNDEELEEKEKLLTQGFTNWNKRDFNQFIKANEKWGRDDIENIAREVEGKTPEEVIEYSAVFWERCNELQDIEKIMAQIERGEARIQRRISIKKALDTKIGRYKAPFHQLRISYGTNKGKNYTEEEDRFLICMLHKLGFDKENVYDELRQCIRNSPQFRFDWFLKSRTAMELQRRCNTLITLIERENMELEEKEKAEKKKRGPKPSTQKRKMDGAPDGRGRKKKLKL
UniProt Q8TEQ6: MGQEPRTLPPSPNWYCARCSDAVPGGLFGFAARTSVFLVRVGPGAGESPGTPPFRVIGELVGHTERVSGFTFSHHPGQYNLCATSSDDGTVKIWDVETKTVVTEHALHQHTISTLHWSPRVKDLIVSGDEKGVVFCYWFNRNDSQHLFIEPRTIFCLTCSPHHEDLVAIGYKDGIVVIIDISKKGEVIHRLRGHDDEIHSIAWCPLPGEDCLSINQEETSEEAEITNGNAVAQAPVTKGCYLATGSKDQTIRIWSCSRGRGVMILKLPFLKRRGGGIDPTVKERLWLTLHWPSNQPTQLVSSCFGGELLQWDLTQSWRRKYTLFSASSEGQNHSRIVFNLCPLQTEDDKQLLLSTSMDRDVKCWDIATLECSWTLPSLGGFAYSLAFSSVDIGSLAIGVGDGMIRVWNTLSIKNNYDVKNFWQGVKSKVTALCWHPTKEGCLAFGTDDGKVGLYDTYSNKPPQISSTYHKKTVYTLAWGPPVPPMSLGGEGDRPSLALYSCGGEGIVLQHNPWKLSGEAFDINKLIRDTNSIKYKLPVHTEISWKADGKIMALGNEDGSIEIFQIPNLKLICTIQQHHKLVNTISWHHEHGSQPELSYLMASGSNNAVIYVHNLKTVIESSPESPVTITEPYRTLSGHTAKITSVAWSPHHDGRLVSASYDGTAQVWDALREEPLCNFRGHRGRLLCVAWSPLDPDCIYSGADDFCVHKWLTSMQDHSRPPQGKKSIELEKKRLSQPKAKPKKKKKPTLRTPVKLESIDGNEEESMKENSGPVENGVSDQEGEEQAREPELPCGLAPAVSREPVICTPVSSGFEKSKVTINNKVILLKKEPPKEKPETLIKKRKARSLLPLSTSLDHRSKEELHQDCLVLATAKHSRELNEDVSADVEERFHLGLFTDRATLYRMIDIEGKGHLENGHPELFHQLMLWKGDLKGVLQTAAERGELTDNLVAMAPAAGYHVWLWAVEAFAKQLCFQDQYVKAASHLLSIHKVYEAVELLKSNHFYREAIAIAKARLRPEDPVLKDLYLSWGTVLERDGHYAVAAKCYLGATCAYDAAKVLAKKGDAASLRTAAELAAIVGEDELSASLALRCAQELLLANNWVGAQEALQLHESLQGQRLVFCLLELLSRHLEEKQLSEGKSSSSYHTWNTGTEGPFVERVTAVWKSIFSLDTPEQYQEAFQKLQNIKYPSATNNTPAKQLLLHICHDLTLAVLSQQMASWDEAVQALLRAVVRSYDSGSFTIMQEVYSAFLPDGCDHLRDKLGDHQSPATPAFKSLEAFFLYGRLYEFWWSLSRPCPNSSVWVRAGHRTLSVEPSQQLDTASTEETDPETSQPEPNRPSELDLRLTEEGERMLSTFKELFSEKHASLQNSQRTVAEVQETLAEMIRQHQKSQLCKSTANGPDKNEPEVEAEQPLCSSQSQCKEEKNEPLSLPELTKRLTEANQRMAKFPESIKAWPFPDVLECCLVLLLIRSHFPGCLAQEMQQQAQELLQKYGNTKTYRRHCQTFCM
UniProt O95602: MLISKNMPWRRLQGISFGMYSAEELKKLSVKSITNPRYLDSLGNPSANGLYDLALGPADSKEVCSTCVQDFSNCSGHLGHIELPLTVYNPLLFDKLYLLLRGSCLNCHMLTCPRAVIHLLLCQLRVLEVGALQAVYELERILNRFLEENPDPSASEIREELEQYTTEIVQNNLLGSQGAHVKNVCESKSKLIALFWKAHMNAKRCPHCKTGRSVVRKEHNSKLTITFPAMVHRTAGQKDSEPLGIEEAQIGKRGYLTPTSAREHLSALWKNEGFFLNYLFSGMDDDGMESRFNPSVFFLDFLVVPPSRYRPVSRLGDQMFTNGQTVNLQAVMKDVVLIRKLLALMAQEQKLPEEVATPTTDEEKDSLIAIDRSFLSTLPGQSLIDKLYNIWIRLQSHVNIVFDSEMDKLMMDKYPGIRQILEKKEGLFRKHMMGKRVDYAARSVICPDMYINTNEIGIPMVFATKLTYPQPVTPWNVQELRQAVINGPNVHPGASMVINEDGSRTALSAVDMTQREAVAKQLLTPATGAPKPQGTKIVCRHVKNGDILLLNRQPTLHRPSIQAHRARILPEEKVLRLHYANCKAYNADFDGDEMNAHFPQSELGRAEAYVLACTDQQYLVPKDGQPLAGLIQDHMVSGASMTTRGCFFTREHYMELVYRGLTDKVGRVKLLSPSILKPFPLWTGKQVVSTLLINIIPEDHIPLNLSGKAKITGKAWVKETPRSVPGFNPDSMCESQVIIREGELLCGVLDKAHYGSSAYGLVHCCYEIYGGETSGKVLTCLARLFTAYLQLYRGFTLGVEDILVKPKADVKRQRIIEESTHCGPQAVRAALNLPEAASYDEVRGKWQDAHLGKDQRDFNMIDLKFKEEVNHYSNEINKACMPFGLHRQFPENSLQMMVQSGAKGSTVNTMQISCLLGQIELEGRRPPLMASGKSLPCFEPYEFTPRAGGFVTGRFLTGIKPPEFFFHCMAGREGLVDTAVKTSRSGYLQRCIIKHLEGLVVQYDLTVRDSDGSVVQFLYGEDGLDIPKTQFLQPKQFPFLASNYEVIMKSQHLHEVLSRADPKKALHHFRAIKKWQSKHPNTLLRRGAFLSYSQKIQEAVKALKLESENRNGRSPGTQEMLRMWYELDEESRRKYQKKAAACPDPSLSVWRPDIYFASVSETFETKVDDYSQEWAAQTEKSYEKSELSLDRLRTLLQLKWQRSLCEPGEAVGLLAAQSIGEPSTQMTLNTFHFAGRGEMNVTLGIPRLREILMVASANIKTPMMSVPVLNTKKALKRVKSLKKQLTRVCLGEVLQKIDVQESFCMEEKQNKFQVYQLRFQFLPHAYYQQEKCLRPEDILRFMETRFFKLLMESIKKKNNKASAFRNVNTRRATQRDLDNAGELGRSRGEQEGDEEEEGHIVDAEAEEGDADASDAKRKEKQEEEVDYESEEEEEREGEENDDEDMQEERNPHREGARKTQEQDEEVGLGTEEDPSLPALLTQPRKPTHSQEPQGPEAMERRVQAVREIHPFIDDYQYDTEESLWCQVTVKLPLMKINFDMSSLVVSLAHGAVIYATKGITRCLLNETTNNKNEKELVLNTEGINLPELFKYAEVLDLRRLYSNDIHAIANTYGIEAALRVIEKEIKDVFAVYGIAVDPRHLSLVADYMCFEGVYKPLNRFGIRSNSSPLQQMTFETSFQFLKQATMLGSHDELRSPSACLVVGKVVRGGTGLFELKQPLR

The target in experiment [1] is GFP–SMN1 (survival of motor neurons protein, GFP-tagged) (human) (UniProt Q16637). Description: affinity purification with mass spectrometry; triple SILAC; nuclei of U2OS (control), U2OS^GFP–SMN1 (over-expression) and U2OS^GFP–SMN1-PR (replacement) cells solubilised in RIPA buffer, lysates mixed 1:1:1; GFP–SMN1 captured with GFP-TRAP_A; LC-MS/MS, MaxQuant.
The target in experiment [2] is mCherry–UBF1 (upstream binding factor 1, mCherry-tagged) (human) (UniProt P17480). Description: affinity purification with mass spectrometry; triple SILAC; nuclei of HeLa (control) and HeLa^mCherry–UBF1-PR cells, untreated or treated with low-concentration Actinomycin-D, solubilised in RIPA buffer, lysates mixed 1:1:1; mCherry–UBF1 captured with RFP-TRAP_A; LC-MS/MS, MaxQuant.

No constants are given. Whether binding was seen depends on the method and setting. Binding seen in cells or lysates may run through a third protein. Here binding means that the protein was enriched with, or labelled near, the bait; the list need not be complete.

Consider Gemin2 (from UniProt O14893 1-280), for which, in experiment [1], the binding entry was “binds”. “SMARCA5/SNF2h (SWI/SNF related, matrix associated, actin dependent regulator of chromatin, subfamily a, member 5) (from UniProt O60264 1-1052)”: the binding entry in experiment [2] was “binds”. Consider Gemin5 (from UniProt Q8TEQ6 1-1508), for which the binding entry in experiment [1] is “binds”. In the case of “POLR1A (polymerase (RNA) I polypeptide A) (from UniProt O95602 1-1720)”, the binding entry in experiment [2] is reported as “binds”.

B1: Gemin8 (protein, UniProt Q9NWZ8 1-242)
chain: MAAVKASTSKATRPWYSHPVYARYWQHYHQAMAWMQSHHNAYRKAVESCFNLPWYLPSALLPQSSYDNEAAYPQSFYDHHVAWQDYPCSSSHFRRSGQHPRYSSRIQASTKEDQALSKEEEMETESDAEVECDLSNMEITEELRQYFAETERHREERRRQQQLDAERLDSYVNADHDLYCNTRRSVEAPTERPGERRQAEMKRLYGDSAAKIQAMEAAVQLSFDKHCDRKQPKYWPVIPLKF
Consider B1, for which the binding result in experiment [1] is “binds”.

B2: WSTF (Williams syndrome transcription factor) (protein, UniProt Q9UIG0 1-1483)
chain: MAPLLGRKPFPLVKPLPGEEPLFTIPHTQEAFRTREEYEARLERYSERIWTCKSTGSSQLTHKEAWEEEQEVAELLKEEFPAWYEKLVLEMVHHNTASLEKLVDTAWLEIMTKYAVGEECDFEVGKEKMLKVKIVKIHPLEKVDEEATEKKSDGACDSPSSDKENSSQIAQDHQKKETVVKEDEGRRESINDRARRSPRKLPTSLKKGERKWAPPKFLPHKYDVKLQNEDKIISNVPADSLIRTERPPNKEIVRYFIRHNALRAGTGENAPWVVEDELVKKYSLPSKFSDFLLDPYKYMTLNPSTKRKNTGSPDRKPSKKSKTDNSSLSSPLNPKLWCHVHLKKSLSGSPLKVKNSKNSKSPEEHLEEMMKMMSPNKLHTNFHIPKKGPPAKKPGKHSDKPLKAKGRSKGILNGQKSTGNSKSPKKGLKTPKTKMKQMTLLDMAKGTQKMTRAPRNSGGTPRTSSKPHKHLPPAALHLIAYYKENKDREDKRSALSCVISKTARLLSSEDRARLPEELRSLVQKRYELLEHKKRWASMSEEQRKEYLKKKREELKKKLKEKAKERREKEMLERLEKQKRYEDQELTGKNLPAFRLVDTPEGLPNTLFGDVAMVVEFLSCYSGLLLPDAQYPITAVSLMEALSADKGGFLYLNRVLVILLQTLLQDEIAEDYGELGMKLSEIPLTLHSVSELVRLCLRRSDVQEESEGSDTDDNKDSAAFEDNEVQDEFLEKLETSEFFELTSEEKLQILTALCHRILMTYSVQDHMETRQQMSAELWKERLAVLKEENDKKRAEKQKRKEMEAKNKENGKVENGLGKTDRKKEIVKFEPQVDTEAEDMISAVKSRRLLAIQAKKEREIQEREMKVKLERQAEEERIRKHKAAAEKAFQEGIAKAKLVMRRTPIGTDRNHNRYWLFSDEVPGLFIEKGWVHDSIDYRFNHHCKDHTVSGDEDYCPRSKKANLGKNASMNTQHGTATEVAVETTTPKQGQNLWFLCDSQKELDELLNCLHPQGIRESQLKERLEKRYQDIIHSIHLARKPNLGLKSCDGNQELLNFLRSDLIEVATRLQKGGLGYVEETSEFEARVISLEKLKDFGECVIALQASVIKKFLQGFMAPKQKRRKLQSEDSAKTEEVDEEKKMVEEAKVASALEKWKTAIREAQTFSRMHVLLGMLDACIKWDMSAENARCKVCRKKGEDDKLILCDECNKAFHLFCLRPALYEVPDGEWQCPACQPATARRNSRGRNYTEESASEDSEDDESDEEEEEEEEEEEEEDYEVAGLRLRPRKTIRGKHSVIPPAARSGRRPGKKPHSTRRSQPKAPPVDDAEVDELVLQTKRSSRRQSLELQKCEEILHKIVKYRFSWPFREPVTRDEAEDYYDVITHPMDFQTVQNKCSCGSYRSVQEFLTDMKQVFTNAEVYNCRGSHVLSCMVKTEQCLVALLHKHLPGHPYVRRKRKKFPDRLAEDEGDSEPEAVGQSRGRRQKK
As to B2, the binding result in experiment [2] is given as “binds”.

B3: TCOF1 (Treacle) (protein, UniProt Q13428 1-1488)
chain: MAEARKRRELLPLIYHHLLRAGYVRAAREVKEQSGQKCFLAQPVTLLDIYTHWQQTSELGRKRKAEEDAALQAKKTRVSDPISTSESSEEEEEAEAETAKATPRLASTNSSVLGADLPSSMKEKAKAETEKAGKTGNSMPHPATGKTVANLLSGKSPRKSAEPSANTTLVSETEEEGSVPAFGAAAKPGMVSAGQADSSSEDTSSSSDETDVEGKPSVKPAQVKASSVSTKESPARKAAPAPGKVGDVTPQVKGGALPPAKRAKKPEEESESSEEGSESEEEAPAGTRSQVKASEKILQVRAASAPAKGTPGKGATPAPPGKAGAVASQTKAGKPEEDSESSSEESSDSEEETPAAKALLQAKASGKTSQVGAASAPAKESPRKGAAPAPPGKTGPAVAKAQAGKREEDSQSSSEESDSEEEAPAQAKPSGKAPQVRAASAPAKESPRKGAAPAPPRKTGPAAAQVQVGKQEEDSRSSSEESDSDREALAAMNAAQVKPLGKSPQVKPASTMGMGPLGKGAGPVPPGKVGPATPSAQVGKWEEDSESSSEESSDSSDGEVPTAVAPAQEKSLGNILQAKPTSSPAKGPPQKAGPVAVQVKAEKPMDNSESSEESSDSADSEEAPAAMTAAQAKPALKIPQTKACPKKTNTTASAKVAPVRVGTQAPRKAGTATSPAGSSPAVAGGTQRPAEDSSSSEESDSEEEKTGLAVTVGQAKSVGKGLQVKAASVPVKGSLGQGTAPVLPGKTGPTVTQVKAEKQEDSESSEEESDSEEAAASPAQVKTSVKKTQAKANPAAARAPSAKGTISAPGKVVTAAAQAKQRSPSKVKPPVRNPQNSTVLARGPASVPSVGKAVATAAQAQTGPEEDSGSSEEESDSEEEAETLAQVKPSGKTHQIRAALAPAKESPRKGAAPTPPGKTGPSAAQAGKQDDSGSSSEESDSDGEAPAAVTSAQVIKPPLIFVDPNRSPAGPAATPAQAQAASTPRKARASESTARSSSSESEDEDVIPATQCLTPGIRTNVVTMPTAHPRIAPKASMAGASSSKESSRISDGKKQEGPATQVSKKNPASLPLTQAALKVLAQKASEAQPPVARTQPSSGVDSAVGTLPATSPQSTSVQAKGTNKLRKPKLPEVQQATKAPESSDDSEDSSDSSSGSEEDGEGPQGAKSAHTLGPTPSRTETLVEETAAESSEDDVVAPSQSLLSGYMTPGLTPANSQASKATPKLDSSPSVSSTLAAKDDPDGKQEAKPQQAAGMLSPKTGGKEAASGTTPQKSRKPKKGAGNPQASTLALQSNITQCLLGQPWPLNEAQVQASVVKVLTELLEQERKKVVDTTKESSRKGWESRKRKLSGDQPAARTPRSKKKKKLGAGEGGEASVSPEKTSTTSKGKAKRDKASGDVKEKKGKGSLGSQGAKDEPEEELQKGMGTVEGGDQSNPKSKKEKKKSDKRKKDKEKKEKKKKAKKASTKDSESPSQKKKKKKKKTAEQTV
Turning to B3, in experiment [2], the binding result is listed as “binds”.
